Measurements: PMC9270420
No constants are given. Whether binding was seen depends on the method and setting. Binding seen in cells or lysates may run through a third protein. Some binding calls cover weakened binding; strength is not graded here.

Chains of the proteins cited; added tags and fusions are not shown.
UniProt P34152: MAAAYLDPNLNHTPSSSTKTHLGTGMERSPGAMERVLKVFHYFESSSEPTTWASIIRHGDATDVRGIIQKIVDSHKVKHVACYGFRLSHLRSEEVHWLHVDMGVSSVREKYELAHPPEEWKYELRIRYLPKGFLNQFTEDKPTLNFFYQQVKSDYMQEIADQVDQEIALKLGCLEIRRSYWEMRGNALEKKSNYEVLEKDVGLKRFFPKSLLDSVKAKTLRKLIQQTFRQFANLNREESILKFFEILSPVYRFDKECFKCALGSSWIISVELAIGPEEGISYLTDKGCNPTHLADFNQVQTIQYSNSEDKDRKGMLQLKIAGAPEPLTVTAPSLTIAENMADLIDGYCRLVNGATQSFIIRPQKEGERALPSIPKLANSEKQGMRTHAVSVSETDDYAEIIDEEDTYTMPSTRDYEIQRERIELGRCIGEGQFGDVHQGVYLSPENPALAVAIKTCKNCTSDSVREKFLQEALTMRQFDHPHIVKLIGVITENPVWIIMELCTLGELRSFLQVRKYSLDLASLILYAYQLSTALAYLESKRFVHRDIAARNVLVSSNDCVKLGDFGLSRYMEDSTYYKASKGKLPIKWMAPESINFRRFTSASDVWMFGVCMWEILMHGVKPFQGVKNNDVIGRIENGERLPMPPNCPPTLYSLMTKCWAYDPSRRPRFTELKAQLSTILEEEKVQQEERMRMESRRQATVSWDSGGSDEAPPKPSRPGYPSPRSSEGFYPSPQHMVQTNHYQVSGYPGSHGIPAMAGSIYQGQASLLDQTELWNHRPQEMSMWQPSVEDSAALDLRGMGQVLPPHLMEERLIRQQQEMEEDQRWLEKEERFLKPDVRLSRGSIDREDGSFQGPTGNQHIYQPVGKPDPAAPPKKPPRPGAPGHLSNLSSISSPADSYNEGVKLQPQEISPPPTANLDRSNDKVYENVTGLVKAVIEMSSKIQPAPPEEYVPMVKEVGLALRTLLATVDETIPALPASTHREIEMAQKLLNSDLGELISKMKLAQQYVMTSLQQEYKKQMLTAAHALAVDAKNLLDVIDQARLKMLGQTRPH

How the values were obtained:
[1] = target: focal adhesion kinase (FAK) (mouse (endogenous in RAW 264.7 cells and mouse lung tissue)) (UniProt P34152); experiment: co-IP; RAW 264.7 cell extracts incubated with anti-FAK antibody for 1 h, precipitated with protein G-Sepharose at 4 °C overnight, TAK1 detected by immunoblot; cells treated with 0.5 μg/mL LPS (10 min or the indicated times), with or without 1 μM PND-1186 pretreatment for 1 h
[2] = target: focal adhesion kinase (FAK) (mouse (endogenous in RAW 264.7 cells and mouse lung tissue)) (UniProt P34152); experiment: co-IP; mouse lung tissues after intratracheal LPS, with or without PND-1186 treatment of the mice; complexes of FAK-TAK1 detected by immunoprecipitation

- binding [1]: binds
- binding [2]: binds
B1: transforming growth factor-β-activated kinase-1 (TAK1) (protein, UniProt Q62073 1-579)
chain: MSTASAASSSSSSSASEMIEAPSQVLNFEEIDYKEIEVEEVVGRGAFGVVCKAKWRAKDVAIKQIESESERKAFIVELRQLSRVNHPNIVKLYGACLNPVCLVMEYAEGGSLYNVLHGAEPLPYYTAAHAMSWCLQCSQGVAYLHSMQPKALIHRDLKPPNLLLVAGGTVLKICDFGTACDIQTHMTNNKGSAAWMAPEVFEGSNYSEKCDVFSWGIILWEVITRRKPFDEIGGPAFRIMWAVHNGTRPPLIKNLPKPIESLMTRCWSKDPSQRPSMEEIVKIMTHLMRYFPGADEPLQYPCQYSDEGQSNSATSTGSFMDIASTNTSNKSDTNMEQVPATNDTIKRLESKLLKNQAKQQSESGRLSLGASRGSSVESLPPTSEGKRMSADMSEIEARIVATAGNGQPRRRSIQDLTVTGTEPGQVSSRSSSPSVRMITTSGPTSEKPARSHPWTPDDSTDTNGSDNSIPMAYLTLDHQLQPLAPCPNSKESMAVFEQHCKMAQEYMKVQTEIALLLQRKQELVAELDQDEKDQQNTSRLVQEHKKLLDENKSLSTYYQQCKKQLEVIRSQQQKRQGTS
